Test results reported in paper PMC3757082.
No constants are given. Whether binding was seen depends on the method and setting. For some of these results: In cells and extracts the contact can be indirect. Some binding calls cover weakened binding; strength is not graded here. For some of these results: Sequences can lack the tags named with a protein.

Experiments:
[1] = biological target: T1, RSA1, bait RSA1-pDEST32 (Arabidopsis thaliana) (UniProt F4IS91); test: two-hybrid; RSA1-pDEST32 (bait) and RITF1-pDEST22 (prey), ProQuest Two-Hybrid System, yeast strain AH109, x-gal assay and growth on SD-L-W-H+3-AT
T1 sequence: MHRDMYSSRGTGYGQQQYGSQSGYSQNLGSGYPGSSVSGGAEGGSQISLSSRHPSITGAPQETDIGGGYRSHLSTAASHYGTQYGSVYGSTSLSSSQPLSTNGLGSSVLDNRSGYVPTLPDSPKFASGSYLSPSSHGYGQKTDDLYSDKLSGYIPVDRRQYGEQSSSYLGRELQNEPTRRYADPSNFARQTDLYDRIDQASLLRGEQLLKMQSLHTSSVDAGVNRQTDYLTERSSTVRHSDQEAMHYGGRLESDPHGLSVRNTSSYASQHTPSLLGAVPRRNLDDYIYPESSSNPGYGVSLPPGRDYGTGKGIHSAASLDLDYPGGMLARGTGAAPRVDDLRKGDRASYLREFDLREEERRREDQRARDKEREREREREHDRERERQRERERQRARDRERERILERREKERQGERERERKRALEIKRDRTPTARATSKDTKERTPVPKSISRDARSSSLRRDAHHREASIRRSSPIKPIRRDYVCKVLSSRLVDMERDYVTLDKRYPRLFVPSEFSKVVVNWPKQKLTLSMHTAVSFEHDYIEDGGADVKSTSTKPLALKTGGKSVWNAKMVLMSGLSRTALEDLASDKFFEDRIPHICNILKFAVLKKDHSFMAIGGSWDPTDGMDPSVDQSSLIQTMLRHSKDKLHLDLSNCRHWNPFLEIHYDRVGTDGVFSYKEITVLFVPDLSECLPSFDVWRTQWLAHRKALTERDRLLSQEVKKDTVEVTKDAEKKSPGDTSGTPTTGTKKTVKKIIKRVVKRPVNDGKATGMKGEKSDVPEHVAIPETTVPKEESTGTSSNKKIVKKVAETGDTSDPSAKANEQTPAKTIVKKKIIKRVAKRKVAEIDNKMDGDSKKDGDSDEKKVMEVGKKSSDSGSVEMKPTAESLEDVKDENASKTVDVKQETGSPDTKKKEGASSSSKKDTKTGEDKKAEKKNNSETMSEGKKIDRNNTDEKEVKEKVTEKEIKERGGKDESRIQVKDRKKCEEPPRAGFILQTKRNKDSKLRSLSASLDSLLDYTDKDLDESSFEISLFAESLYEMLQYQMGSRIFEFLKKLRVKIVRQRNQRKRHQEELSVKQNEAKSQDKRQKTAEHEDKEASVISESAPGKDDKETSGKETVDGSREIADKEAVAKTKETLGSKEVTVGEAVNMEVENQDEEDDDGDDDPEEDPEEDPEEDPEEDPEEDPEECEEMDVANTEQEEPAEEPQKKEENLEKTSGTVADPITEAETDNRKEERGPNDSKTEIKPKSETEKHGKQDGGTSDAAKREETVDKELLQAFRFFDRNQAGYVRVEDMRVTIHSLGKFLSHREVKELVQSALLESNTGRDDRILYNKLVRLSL

[2] = biological target: T2, RSA1-nYFP (Arabidopsis thaliana) (UniProt F4IS91); test: split reporter; BiFC: RSA1-nYFP and RITF1-cYFP co-transfected into Arabidopsis leaf protoplasts, confocal microscopy
T2 sequence: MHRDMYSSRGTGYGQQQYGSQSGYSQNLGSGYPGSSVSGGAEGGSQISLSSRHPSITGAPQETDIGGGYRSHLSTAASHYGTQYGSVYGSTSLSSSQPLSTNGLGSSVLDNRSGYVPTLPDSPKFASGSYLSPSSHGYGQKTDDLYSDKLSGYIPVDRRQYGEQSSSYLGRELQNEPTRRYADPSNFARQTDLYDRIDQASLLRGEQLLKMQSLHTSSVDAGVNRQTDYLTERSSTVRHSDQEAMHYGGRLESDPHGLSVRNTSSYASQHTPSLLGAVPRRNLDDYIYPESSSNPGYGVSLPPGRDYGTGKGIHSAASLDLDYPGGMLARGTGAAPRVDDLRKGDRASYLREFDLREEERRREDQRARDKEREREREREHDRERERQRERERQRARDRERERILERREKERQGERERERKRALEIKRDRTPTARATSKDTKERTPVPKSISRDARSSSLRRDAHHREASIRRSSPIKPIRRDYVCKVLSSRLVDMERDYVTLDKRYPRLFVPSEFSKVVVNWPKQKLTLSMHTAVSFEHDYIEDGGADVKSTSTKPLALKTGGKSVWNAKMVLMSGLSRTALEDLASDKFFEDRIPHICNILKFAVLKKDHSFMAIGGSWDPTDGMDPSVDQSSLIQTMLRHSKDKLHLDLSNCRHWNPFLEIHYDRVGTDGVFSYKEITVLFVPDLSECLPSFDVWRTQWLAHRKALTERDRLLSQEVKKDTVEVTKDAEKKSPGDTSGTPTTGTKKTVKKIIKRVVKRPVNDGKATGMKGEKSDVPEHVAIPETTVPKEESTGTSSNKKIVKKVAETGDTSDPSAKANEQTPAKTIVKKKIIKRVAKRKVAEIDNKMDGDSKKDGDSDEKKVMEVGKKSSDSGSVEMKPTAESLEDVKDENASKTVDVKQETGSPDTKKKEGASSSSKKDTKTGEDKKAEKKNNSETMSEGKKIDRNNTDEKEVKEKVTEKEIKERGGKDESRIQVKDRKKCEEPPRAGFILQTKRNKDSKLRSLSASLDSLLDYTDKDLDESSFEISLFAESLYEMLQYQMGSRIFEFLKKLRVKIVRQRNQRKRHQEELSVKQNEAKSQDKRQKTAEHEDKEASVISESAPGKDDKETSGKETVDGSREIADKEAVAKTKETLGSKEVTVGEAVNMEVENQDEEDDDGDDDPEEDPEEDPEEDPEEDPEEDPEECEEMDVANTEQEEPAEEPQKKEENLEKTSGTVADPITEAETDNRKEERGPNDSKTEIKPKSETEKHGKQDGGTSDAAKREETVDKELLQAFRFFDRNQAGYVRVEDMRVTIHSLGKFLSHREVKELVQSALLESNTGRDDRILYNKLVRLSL

[3] = biological target: T2, RSA1-nYFP (Arabidopsis thaliana); test: split reporter; BiFC: RSA1-nYFP and RITF1-cYFP co-infiltrated with 35S:p19 into tobacco (Nicotiana benthamiana) leaves, 3 d, confocal microscopy of epidermal cells
[4] = biological target: T3, RSA1-nLUC (Arabidopsis thaliana) (UniProt F4IS91); test: split reporter; Split-LUC: RSA1-nLUC and RITF1-cLUC co-infiltrated with 35S:p19 into tobacco leaves, 3 d, CCD camera
T3 sequence: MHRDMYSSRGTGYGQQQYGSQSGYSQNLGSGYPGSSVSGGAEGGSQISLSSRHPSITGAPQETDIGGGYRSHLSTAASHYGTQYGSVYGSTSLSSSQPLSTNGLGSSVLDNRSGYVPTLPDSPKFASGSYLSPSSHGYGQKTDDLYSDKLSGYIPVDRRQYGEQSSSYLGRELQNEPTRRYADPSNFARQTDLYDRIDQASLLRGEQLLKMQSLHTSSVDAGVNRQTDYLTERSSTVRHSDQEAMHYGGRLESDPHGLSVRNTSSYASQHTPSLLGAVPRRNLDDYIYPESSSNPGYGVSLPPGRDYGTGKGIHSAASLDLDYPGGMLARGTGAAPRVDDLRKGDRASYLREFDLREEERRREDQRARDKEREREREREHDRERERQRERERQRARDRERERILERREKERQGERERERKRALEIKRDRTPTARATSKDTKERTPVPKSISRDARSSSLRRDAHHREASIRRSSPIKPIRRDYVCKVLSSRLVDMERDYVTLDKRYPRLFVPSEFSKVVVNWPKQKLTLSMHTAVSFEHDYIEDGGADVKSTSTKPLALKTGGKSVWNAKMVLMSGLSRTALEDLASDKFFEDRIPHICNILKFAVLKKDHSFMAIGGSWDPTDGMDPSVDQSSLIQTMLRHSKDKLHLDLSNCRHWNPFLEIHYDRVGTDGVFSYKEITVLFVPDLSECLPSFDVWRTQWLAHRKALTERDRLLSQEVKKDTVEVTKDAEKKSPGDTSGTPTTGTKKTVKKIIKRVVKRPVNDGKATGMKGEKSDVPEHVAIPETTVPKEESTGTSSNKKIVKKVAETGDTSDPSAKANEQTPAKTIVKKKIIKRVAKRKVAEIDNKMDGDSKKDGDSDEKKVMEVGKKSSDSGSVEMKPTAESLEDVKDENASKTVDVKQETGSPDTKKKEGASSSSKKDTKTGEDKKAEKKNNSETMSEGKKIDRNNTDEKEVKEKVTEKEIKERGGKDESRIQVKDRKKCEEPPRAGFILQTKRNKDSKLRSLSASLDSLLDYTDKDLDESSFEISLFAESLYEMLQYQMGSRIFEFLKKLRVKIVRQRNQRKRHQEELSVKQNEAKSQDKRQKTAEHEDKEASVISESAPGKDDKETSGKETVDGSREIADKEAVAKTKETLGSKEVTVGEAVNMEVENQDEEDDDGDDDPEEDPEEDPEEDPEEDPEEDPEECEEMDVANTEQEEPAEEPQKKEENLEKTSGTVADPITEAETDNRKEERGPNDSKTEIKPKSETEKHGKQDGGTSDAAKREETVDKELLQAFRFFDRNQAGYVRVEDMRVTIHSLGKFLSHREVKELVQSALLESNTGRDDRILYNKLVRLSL

B1: RITF1, prey RITF1-pDEST22 (protein, UniProt Q9C8Z9 1-221)
chain: MASLISDIEPPTSTTSDLVRRKKRSSASSAASSRSSASSVSGEIHARWRSEKQQRIYSAKLFQALQQVRLNSSASTSSSPTAQKRGKAVREAADRALAVSARGRTLWSRAILANRIKLKFRKQRRPRATMAIPAMTTVVSSSSNRSRKRRVSVLRLNKKSIPDVNRKVRVLGRLVPGCGKQSVPVILEEATDYIQALEMQVRAMNSLVQLLSSYGSAPPPI
binding [1]: binds

B2: RITF1-cYFP (protein, UniProt Q9C8Z9 1-221)
chain: MASLISDIEPPTSTTSDLVRRKKRSSASSAASSRSSASSVSGEIHARWRSEKQQRIYSAKLFQALQQVRLNSSASTSSSPTAQKRGKAVREAADRALAVSARGRTLWSRAILANRIKLKFRKQRRPRATMAIPAMTTVVSSSSNRSRKRRVSVLRLNKKSIPDVNRKVRVLGRLVPGCGKQSVPVILEEATDYIQALEMQVRAMNSLVQLLSSYGSAPPPI
binding [2]: binds | binding [3]: binds

B3: RITF1-cLUC (protein, UniProt Q9C8Z9 1-221)
chain: MASLISDIEPPTSTTSDLVRRKKRSSASSAASSRSSASSVSGEIHARWRSEKQQRIYSAKLFQALQQVRLNSSASTSSSPTAQKRGKAVREAADRALAVSARGRTLWSRAILANRIKLKFRKQRRPRATMAIPAMTTVVSSSSNRSRKRRVSVLRLNKKSIPDVNRKVRVLGRLVPGCGKQSVPVILEEATDYIQALEMQVRAMNSLVQLLSSYGSAPPPI
binding [4]: binds
